In US5525591A (Bayer Aktiengesellschaft, priority 1993, dated 1996) one finds step yield data, which are given here for 6 substances.

Strings that start with PEPTIDE1 are HELM notation: dots part the residues, brackets hold end groups and non-standard residues.

The first data set in a line: general procedure: solution-phase peptide synthesis; BOP-Cl, ethyldiisopropylamine. The settings on record: coupling step.
For the substance “Bzl-L-MeLeu-D-Lac-L-MeLeu-D-PheLac-L-MeLeu-D-PheLac-D-OtBu”, the step yield turned out to be 80%.

On to “PEPTIDE1{[Bzl].[MeLeu].[D-Lac].[MeLeu].[D-PheLac].[MeLeu].[D-Lac].[MeLeu].[D-PheLac].[OtBu]}$$$$V2.0”, for which the step yield is on record as 79%.

For “PEPTIDE1{[Bzl].[MePhe].[D-Lac].[MePhe].[D-PheLac].[MePhe].[D-Lac].[MePhe].[D-PheLac].[OtBu]}$$$$V2.0”, the step yield is 89%.

Turning to “tert-Butyl-N-Benzyl-N-propyl-L-leucyl-D-lactyl-N-^i -propyl-L-leucyl-D-3-phenyllactyl-N-^i propyl-L-leucyl-D-lactyl-N-^i propyl-L-leucyl-D-3-phenyllactate”, the step yield came to 39%.

The same data set, now with this note: late stage modification step.
For the substance Bzl-L-MeLeu-D-Lac-L-MeLeu-D-PheLac-OH, the step yield was 80%.

H-L-MeLeu-D-Lac-L-MeLeu-D-PheLac-OtBu gave a step yield of 74%.
